Laboratory results: patent publication US20070166547A1, “Use of a layer consisting of hydrophobic linear, or two-dimensional polycyclic aromatics as a barrier layer or an encapsulation and electric components constructed with a layer of this type and comprising organic polymers” (priority 2003, published 2007)

Experiments:
[1] = test system: indicator enzymes in blood plasma; experiment: Morphine abstinence model: indicator enzymes AST, ALT, γ-GTP in blood plasma; type: in vivo, rats Wistar; conditions: morphine alone, 6 days intraperitoneal
Description: (§1) The experiments were carried out on rats in series of 7 animals on each compound according to the invention. Non-morphinized animal with not administered with compounds according to the invention were used as a control group. […] Then the rats were decapitated, the blood from somnolent arteries was collected in test tubes with solution EDTA as an anticoagulant, centrifuged at 1500 g for 15 minutes at 4° C.
To estimate possible hepatoprotective action of the compounds according to the invention under conditions of development of an oxidizing stress in the liver cells, effect of these compounds on the most important biochemical blood indexes, in particular, on the content in blood plasma of indicator enzyme of aspartateaminotransferase (AST), alanineaminotransferase (ALT), γ-glutamiletranspeptidase (γ-GTP) was investigated. The content of enzymes was estimated by their catalyzing activity in blood plasma.
The activity of AST, ALT and γ-GTP was determined by means of diagnostic sets DiaSys, Germany.

[2] = test system: metabolism of nitrogen oxide; experiment: Morphine abstinence model: nitrites and nitrates NOX− in blood plasma, liver and brain; type: in vivo, rats Wistar; conditions: morphine alone
Description: as §1
To estimate the intensity of metabolism of nitrogen oxide in rats, quantitative determination of stable metabolites of nitrogen oxide—nitrites and nitrates NOX^− in the blood plasma, supernatanates of the liver and thymus gland, a study was conducted by a spectrometric method, and in the brain supernatanates by a […] method.
The spectrometric method is based the reaction of nitrites with the Griss reagent (a mixture of 2% solution of sulfanilamide and 0.2% N-(1-naphthyl)ethylene diamine. At the first step the nitrite reacts with sulfanilamide with formation of diazonium salt, and then with the second component to form azo dye with an adsorption maximum at 540 nm. For reduction of nitrates into nitrites, a fermentative method was used with bacterial reductase nitrate (Grisham M. B. et al., 1995). The samples of plasma and supernatant of the liver deproteinizated at 100° C. for 5 minutes incubated for 30 minutes at 37° C. in 50.0 mM of HEPES pH 7.4 in the presence of 0.2 unit/ml of Aspergillus reductase nitrate, 5.0 mkM of FAD and 0.1 mM of NAD-Ph. At the end of the reaction lactate dehydrogenase and pyruvate were added for isolation of NAD-Ph interfering with the Griss reaction. Then the Griss reagent was added and after 10-minute incubation the light absorption of the samples was measured at 540 nm. To amount of NOX^− was calculated using sodium nitrate as a standard.
The fluorometric method is based on calculation of the nitrite level by the intensity fluorescence of 2,3-diaminonaphthotriazole, a product of reaction of 2,3-diaminonaphthalene (DAN) and nitrite in an acidic medium (Misko T. R., Schilling R. J., Salvemini D. et al. “A fluorometric assay for the measurement of nitrite of biological samples”. Anal. Biochem., 1993, v. 214, p. 11-16). […]
280 mM of NaOH were added for stabilization of the fluorescence of the formed 2,3-diaminonaphthotriazole. The fluorescence intensity was measured in the spectrofluorimeter Hitachi F-3000 at a wavelength of excitation of 365 nm and an emission of 405 nm. The concentration of NOX^− in the brain was calculated by means of a standard solution of sodium nitrate.

CN1CC[C@]23c4c5ccc(O)c4O[C@H]2[C@@H](O)C=C[C@H]3[C@H]1C5 [Morphine, reference compound]
ALT, Ci, mE/l, control + Morphine [1]: 116.12 ± 110.44 mE/l | AST, Ci, mE/l, control + Morphine [1]: 238.201 ± 14.71 mE/l | γ-GTP, Ci, mE/l, control + Morphine [1]: 16.80 ± 13.32 mE/l | Nitrites in blood plasma, Control + Morphine [2]: 12.12 ± 0.61 mkmol/ml | Nitrites in brain, Cortex of cerebrum, Control + Morphine [2]: 5.31 ± 0.29 nmol/mg of protein | Nitrites in brain, Mesencephalon, Control + Morphine [2]: 9.41 ± 1.20 nmol/mg of protein | Nitrites in liver, Control + Morphine [2]: 0.259 ± 0.012 nmol/mg of protein
